Laboratory results as given in paper PMC7643160, “An ambruticin-sensing complex modulates Myxococcus xanthus development and mediates myxobacterial interspecies communication” (Nature Communications, 2020).

Legend:
[1] = test system: AskA + AskB + AskC; assay: pull-down; settings: 10 uM ATP, independent of MrpC and ambruticin VS-3, at least a two-membered kinase complex; Pull-down (purified): 25 mM HEPES pH 7.4, 60 mM KCl, 65 mM NaCl, 8 mM MgCl2, 10 uM ATP, 25 ug/ml poly-dIdC, 10% glycerol, 0.1% Triton X100, 4 C; recombinant protein; label: 5'-biotin (both primers); probe letters rebuilt from the primers and the genome
[2] = test system: AskA + AskB + AskC + MrpC; assay: pull-down; settings: 10 uM ATP, MrpC and kinase binding not mutually exclusive, single complex not proven; Pull-down (purified): 25 mM HEPES pH 7.4, 60 mM KCl, 65 mM NaCl, 8 mM MgCl2, 10 uM ATP, 25 ug/ml poly-dIdC, 10% glycerol, 0.1% Triton X100, 4 C; recombinant protein; label: 5'-biotin (both primers); probe letters rebuilt from the primers and the genome
[3] = molecular target: AskB (Myxococcus xanthus DK1622) (UniProt Q1CXM1); assay: pull-down; settings: 10 uM ATP; Pull-down (purified): 25 mM HEPES pH 7.4, 60 mM KCl, 65 mM NaCl, 8 mM MgCl2, 10 uM ATP, 25 ug/ml poly-dIdC, 10% glycerol, 0.1% Triton X100, 4 C; recombinant protein; label: 5'-biotin (both primers); probe letters rebuilt from the primers and the genome
[4] = molecular target: AskA (Myxococcus xanthus DK1622) (UniProt Q1DEE3); assay: pull-down; settings: 10 uM ATP; Pull-down (purified): 25 mM HEPES pH 7.4, 60 mM KCl, 65 mM NaCl, 8 mM MgCl2, 10 uM ATP, 25 ug/ml poly-dIdC, 10% glycerol, 0.1% Triton X100, 4 C; recombinant protein; residues 1-1967; label: 5'-biotin (both primers); probe letters rebuilt from the primers and the genome
[5] = molecular target: AskB (Myxococcus xanthus DK1622) (UniProt Q1CXM1); assay: EMSA; settings: shift to the well, with Cy5-P0552 present, abolished by excess unlabeled PmrpC; EMSA: 25 mM K-acetate, 8 mM MgSO4, 0.1 mM DTT, 15 mM Tris-HCl pH 7.3, 8% glycerol, 250 ng poly-dIdC, 200 fmol DNA, 15 ul, 30 C 30 min; recombinant protein; label: 5'-HEX (both primers); probe letters rebuilt from the primers and the genome
[6] = molecular target: T1, MrpC (Myxococcus xanthus DK1622) (UniProt Q1D244); assay: EMSA; settings: no ambruticin VS-3, four shifted bands, shift quantitative; EMSA: 25 mM K-acetate, 8 mM MgSO4, 0.1 mM DTT, 15 mM Tris-HCl pH 7.3, 8% glycerol, 250 ng poly-dIdC, 200 fmol DNA, 15 ul, 30 C 30 min; recombinant protein; residues 1-248; label: 5'-HEX (both primers); probe letters rebuilt from the primers and the genome
T1 sequence (looked up): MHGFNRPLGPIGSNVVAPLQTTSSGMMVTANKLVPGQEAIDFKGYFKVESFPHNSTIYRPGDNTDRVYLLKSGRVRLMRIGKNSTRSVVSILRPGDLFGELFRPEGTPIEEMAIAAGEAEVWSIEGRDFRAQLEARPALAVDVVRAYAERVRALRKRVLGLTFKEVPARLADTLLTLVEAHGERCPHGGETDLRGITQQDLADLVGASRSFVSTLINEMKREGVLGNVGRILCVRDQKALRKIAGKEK

[7] = molecular target: T2, AskC (Myxococcus xanthus DK1622) (UniProt Q1CXM2); assay: EMSA; settings: with Cy5-P0552 present; EMSA: 25 mM K-acetate, 8 mM MgSO4, 0.1 mM DTT, 15 mM Tris-HCl pH 7.3, 8% glycerol, 250 ng poly-dIdC, 200 fmol DNA, 15 ul, 30 C 30 min; recombinant protein; protein details: C-terminal His6; label: 5'-HEX (both primers); probe letters rebuilt from the primers and the genome
T2 sequence (looked up, limits assumed): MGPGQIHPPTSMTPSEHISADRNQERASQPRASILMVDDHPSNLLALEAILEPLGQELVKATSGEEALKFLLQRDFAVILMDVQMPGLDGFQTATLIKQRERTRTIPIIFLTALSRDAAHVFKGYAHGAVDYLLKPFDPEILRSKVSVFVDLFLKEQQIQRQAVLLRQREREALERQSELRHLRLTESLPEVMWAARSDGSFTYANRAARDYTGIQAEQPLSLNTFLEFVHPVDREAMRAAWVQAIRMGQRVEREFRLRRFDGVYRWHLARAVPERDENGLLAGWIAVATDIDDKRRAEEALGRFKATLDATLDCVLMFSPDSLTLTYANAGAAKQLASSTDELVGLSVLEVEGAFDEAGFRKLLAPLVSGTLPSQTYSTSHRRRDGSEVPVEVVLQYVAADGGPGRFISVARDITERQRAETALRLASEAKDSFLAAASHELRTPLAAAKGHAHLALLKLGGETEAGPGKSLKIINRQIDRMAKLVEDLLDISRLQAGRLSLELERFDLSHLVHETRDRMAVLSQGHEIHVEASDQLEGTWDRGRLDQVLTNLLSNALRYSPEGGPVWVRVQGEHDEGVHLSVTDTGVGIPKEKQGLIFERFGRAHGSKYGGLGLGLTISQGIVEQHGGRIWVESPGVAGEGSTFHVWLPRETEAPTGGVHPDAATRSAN

Sequence	binding result [1]	binding result [2]	binding result [3]	binding result [4]	binding result [5]	binding result [6]	binding result [7]
TGGCATAACTCCTGGGAAGGAAGCGTAGGGAAGCCGGGCCGTCTGCTTCAGCGGCGAACGGGACTTTCCTTCTCCAAGGTTCGTGCCAGCGGGAATTGAAATGCCGCCGGGACAACACCTCCTGAAATGCCGGGTACTTAGCGCTACAGGCCCGCACCAGAGCCCGTTCTGTGTCCAAAACCTGAAACAGAACGTTCAAACAGTCTGATCAATTTGAACGAAACGTTCAAACCGGGGGCATGAGTGTCGGAGCAGCGACACTGTCCAAGAGTGCTCACAACGCATCCTTCACAGGGAAGGTGTGCACTTGAGGGCTCTGGCTCTGTGCAAGACCGTACTTCTGGAGCTTGCGCTCCAGGGTGGGGCGGCTGATTCCAAGGATC (double strand) [BTN-PmrpC]	binds	binds	binds	binds			
TGGCATAACTCCTGGGAAGGAAGCGTAGGGAAGCCGGGCCGTCTGCTTCAGCGGCGAACGGGACTTTCCTTCTCCAAGGTTCGTGCCAGCGGGAATTGAAATGCCGCCGGGACAACACCTCCTGAAATGCCGGGTACTTAGCGCTACAGGCCCGCACCAGAGCCCGTTCTGTGTCCAAAACCTGAAACAGAACGTTCAAACAGTCTGATCAATTTGAACGAAACGTTCAAACCGGGGGCATGAGTGTCGGAGCAGCGACACTGTCCAAGAGTGCTCACAACGCATCCTTCACAGGGAAGGTGTGCACTTGAGGGCTCTGGCTCTGTGCAAGACCGTACTTCTGGAGCTTGCGCTCCAGGGTGGGGCGGCTGATTCCAAGGATC (double strand) [HEX-PmrpC]					binds	binds	no binding

For some of these results: Protein sequences can lack the tags named with them. For some of these results: The exact form of at least one protein or probe is not confirmed. For some of these results: Negatives hold for the conditions tested. For some of these results: At least one verdict rests on a figure or table, not on a statement of the authors.
